In the supplement of paper PMC6411743 one finds NP40-soluble protein abundance data, which are given here for 17 targets.

Protein sequences, listed by entry. Tags and fused reporters are not part of them. Lines headed by an entry give the natural chain unless they say otherwise; changes in a name come on top.
UniProt O43314: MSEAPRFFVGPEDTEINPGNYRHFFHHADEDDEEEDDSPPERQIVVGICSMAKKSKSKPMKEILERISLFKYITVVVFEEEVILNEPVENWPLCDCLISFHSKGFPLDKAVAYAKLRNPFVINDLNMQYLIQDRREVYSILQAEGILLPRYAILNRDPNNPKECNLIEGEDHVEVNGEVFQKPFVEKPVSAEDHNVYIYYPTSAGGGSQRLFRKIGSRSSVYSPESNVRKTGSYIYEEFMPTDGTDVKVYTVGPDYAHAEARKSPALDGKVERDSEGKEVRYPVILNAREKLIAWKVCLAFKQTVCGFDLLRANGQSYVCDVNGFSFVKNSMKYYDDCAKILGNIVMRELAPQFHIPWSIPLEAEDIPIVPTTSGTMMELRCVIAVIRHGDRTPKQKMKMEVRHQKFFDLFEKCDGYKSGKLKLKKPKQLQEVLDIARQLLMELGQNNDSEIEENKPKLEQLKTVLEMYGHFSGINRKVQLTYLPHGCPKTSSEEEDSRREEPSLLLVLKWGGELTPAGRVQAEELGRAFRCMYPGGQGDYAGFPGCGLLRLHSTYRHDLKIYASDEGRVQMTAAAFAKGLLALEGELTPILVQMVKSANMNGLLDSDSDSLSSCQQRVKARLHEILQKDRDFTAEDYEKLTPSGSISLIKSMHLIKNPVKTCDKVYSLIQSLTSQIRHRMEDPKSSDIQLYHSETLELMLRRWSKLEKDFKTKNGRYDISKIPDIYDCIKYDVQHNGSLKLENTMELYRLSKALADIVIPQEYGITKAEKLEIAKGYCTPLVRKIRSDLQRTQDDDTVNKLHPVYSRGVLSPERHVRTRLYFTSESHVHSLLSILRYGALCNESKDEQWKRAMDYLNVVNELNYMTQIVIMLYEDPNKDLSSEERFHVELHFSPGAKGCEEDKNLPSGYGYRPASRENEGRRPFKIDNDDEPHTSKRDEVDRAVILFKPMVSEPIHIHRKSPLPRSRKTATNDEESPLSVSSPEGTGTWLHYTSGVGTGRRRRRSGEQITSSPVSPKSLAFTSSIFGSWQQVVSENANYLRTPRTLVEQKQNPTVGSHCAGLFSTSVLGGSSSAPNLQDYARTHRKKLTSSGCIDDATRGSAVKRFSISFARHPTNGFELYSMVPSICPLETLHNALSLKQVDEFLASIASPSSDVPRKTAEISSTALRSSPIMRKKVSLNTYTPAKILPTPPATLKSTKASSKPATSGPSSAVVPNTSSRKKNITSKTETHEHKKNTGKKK
UniProt O75818: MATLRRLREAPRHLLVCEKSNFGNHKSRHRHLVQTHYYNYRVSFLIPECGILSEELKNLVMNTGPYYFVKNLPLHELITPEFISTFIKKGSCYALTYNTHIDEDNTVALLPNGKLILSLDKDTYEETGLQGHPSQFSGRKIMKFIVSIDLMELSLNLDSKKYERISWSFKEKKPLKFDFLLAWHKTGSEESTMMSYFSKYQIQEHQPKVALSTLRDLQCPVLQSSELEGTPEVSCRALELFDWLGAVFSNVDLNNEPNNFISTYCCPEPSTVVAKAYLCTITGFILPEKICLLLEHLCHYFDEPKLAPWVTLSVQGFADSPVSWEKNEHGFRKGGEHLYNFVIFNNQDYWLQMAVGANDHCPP
UniProt Q15283: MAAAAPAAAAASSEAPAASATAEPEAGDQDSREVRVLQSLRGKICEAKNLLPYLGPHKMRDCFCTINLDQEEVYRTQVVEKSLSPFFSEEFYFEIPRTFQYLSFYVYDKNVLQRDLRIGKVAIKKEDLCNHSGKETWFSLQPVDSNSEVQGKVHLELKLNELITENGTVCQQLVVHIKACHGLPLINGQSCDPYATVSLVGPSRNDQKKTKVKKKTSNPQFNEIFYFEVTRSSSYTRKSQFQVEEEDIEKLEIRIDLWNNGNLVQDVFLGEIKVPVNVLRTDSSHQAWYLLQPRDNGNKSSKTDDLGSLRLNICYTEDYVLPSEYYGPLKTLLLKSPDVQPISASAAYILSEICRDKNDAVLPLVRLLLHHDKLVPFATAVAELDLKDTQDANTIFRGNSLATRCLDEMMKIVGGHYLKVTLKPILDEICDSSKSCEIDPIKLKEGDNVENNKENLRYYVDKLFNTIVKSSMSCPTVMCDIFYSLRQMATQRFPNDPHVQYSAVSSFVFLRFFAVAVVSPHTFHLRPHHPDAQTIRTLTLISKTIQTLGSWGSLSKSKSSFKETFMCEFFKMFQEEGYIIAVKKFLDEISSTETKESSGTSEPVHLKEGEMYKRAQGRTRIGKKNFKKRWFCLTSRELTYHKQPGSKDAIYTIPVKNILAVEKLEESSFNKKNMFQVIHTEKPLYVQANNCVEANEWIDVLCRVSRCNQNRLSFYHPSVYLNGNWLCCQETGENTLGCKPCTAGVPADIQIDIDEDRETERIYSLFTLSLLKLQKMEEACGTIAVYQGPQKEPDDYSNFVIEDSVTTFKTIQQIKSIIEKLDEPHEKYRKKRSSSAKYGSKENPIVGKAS
UniProt Q9NP73: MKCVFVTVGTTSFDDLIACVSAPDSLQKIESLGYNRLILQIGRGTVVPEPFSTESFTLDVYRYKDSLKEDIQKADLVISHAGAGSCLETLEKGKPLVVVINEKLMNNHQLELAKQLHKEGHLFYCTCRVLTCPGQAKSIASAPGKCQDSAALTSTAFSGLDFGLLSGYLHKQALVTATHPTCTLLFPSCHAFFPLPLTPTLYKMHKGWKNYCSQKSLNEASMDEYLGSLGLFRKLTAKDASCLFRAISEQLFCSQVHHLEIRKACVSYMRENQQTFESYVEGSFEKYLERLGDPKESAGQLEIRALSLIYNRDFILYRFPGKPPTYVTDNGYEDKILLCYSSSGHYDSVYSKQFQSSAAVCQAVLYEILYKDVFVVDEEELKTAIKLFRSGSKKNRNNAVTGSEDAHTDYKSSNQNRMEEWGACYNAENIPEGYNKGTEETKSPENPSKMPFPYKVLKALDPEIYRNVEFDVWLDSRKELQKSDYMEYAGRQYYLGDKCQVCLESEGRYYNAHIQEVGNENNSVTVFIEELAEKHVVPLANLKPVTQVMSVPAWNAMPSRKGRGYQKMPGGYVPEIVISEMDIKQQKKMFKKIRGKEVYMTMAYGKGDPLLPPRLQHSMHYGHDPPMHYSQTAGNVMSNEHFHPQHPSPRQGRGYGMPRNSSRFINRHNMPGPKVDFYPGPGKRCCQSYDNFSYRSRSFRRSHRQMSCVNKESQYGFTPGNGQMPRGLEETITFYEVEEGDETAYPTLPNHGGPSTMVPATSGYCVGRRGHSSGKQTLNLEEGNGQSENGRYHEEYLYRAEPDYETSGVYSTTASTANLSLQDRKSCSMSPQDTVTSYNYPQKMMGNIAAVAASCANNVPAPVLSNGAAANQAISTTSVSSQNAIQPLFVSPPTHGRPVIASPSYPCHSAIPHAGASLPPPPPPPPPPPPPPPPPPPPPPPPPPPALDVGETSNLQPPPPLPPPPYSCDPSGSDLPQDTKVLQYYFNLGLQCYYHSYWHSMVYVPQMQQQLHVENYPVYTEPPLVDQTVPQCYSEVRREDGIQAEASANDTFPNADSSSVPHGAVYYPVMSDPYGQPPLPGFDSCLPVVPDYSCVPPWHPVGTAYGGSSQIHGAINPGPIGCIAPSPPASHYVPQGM
UniProt P15923: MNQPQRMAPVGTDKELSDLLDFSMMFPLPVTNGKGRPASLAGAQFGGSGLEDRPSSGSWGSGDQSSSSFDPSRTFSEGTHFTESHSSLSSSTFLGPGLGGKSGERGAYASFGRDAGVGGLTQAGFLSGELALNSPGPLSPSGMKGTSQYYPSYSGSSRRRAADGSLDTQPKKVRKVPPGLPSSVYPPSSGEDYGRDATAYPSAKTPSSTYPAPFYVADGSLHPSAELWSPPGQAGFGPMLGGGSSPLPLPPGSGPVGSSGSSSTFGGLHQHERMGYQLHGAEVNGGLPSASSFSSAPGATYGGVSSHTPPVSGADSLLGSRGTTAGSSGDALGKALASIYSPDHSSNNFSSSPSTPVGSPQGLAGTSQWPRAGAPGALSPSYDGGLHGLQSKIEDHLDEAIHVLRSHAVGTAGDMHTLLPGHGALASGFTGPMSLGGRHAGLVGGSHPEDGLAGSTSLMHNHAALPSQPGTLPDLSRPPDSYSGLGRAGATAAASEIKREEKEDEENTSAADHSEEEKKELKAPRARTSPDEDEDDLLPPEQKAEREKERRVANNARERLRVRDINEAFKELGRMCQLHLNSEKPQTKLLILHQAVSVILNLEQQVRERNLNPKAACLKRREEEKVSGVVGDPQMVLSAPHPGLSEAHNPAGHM
UniProt Q8N5P1: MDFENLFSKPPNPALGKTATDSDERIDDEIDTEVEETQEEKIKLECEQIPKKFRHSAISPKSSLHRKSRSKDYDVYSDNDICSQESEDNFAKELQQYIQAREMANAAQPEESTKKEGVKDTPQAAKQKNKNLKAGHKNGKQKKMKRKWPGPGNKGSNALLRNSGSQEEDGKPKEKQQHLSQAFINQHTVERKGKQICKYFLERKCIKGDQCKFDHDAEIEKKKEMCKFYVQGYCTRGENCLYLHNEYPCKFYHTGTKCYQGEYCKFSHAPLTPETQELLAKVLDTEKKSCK
UniProt O95139, whole entry: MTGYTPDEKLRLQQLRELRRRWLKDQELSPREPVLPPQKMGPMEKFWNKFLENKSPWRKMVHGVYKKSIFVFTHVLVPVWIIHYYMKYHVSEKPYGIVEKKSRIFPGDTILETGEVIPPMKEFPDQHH
UniProt P22061: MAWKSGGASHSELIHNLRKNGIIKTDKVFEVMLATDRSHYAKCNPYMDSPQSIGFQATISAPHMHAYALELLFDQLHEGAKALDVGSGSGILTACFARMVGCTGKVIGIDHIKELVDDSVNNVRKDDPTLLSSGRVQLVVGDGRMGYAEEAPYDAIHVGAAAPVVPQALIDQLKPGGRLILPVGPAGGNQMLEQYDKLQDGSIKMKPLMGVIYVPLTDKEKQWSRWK
UniProt Q9P2T1: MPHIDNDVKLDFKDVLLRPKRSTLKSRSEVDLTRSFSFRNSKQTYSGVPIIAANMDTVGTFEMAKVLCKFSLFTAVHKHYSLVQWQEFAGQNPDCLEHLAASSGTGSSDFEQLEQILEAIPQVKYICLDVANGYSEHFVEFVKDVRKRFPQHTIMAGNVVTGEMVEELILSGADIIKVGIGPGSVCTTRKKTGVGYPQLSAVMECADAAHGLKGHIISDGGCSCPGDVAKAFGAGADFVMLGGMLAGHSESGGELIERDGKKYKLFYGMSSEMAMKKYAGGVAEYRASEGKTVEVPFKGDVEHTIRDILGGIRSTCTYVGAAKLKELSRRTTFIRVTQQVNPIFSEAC
UniProt A8MW92: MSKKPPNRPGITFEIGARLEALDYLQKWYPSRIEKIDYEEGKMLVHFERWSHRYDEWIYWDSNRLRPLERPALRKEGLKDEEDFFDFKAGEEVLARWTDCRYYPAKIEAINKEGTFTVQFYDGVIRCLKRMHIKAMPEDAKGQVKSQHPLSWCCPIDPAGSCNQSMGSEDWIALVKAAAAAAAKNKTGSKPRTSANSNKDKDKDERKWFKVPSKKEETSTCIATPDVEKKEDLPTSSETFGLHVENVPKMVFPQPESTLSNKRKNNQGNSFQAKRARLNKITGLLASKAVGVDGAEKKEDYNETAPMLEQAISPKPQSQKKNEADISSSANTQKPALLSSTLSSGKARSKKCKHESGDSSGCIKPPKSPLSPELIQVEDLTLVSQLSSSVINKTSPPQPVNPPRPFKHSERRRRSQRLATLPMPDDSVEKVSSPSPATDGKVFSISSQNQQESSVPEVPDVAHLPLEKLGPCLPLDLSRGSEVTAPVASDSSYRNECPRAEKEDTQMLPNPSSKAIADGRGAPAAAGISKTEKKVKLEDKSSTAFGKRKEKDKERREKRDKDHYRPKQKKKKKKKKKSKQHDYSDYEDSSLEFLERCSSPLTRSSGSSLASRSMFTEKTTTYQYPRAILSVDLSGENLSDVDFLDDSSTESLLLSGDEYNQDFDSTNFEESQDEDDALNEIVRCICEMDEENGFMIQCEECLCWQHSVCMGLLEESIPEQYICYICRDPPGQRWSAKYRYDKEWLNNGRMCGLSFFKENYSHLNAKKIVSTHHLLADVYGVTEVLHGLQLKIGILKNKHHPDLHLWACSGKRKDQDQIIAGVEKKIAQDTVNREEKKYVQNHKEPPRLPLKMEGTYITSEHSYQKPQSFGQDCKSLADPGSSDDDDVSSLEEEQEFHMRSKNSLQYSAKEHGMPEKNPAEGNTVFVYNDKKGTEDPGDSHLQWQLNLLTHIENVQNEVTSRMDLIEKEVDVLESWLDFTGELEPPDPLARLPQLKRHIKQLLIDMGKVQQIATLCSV
UniProt P09211: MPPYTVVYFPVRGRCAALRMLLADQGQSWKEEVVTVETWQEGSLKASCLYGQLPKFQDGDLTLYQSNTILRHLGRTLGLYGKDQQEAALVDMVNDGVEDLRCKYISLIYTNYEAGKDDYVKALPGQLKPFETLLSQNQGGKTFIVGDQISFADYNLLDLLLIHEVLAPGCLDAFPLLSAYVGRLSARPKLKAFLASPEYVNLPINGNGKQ

± gives the standard deviation of the averaged measurements. This is a selection; strong and weak results do not stand in their true shares. Most entries show no effect beyond the scatter of the controls.

Compound in this assay: Nc1ncnc2c1ncn2[C@@H]1O[C@H](COP(=O)(O)OP(=O)(O)NP(=O)(O)O)[C@@H](O)[C@H]1O [adenylyl imidodiphosphate]
Put plainly: NP40-soluble protein abundance relative to vehicle (solubility fold change) (ratio); higher = more soluble protein in presence of AMP-PNP. The conditions noted are these: concentration: 0.1mM. Put shortly:
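In three independent experiments, Jurkat crude lysate made by Dounce homogenisation was treated for 10 min at room temperature and then 3 min at 37 °C with eight concentrations ranging from 0.1 to 10 mM. It was then solubilised with 0.8% NP40 plus benzonase for 60 min at 4 °C and ultracentrifuged. The supernatant was TMT-labelled for LC-MS/MS, and each value is the fold change against the detergent-processed vehicle for the same replicate, using vsn-normalised intensities.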
In the case of “A0A087WZV0|O43314 and related entries (UniProt O43314)”, the NP40-soluble protein abundance is 1.05 ± 0.054. Regarding UniProt A0MZ66 and related entries, the NP40-soluble protein abundance amounted to 0.9639 ± 0.0025. Consider “A0A087WZ32|A0A087X038|A8K727 and related entries (UniProt Q9HB19)”, for which the NP40-soluble protein abundance is 0.983 ± 0.017. The same measure for “A0A087X1N3|O75818 and related entries (UniProt O75818)”: 1.02 ± 0.022; for “A0A0A0MSJ9|Q15283 and related entries (UniProt Q15283)”: 1.014 ± 0.0093. Then “A0A096LP10|Q9NP73-2|Q9NP73 (UniProt Q9NP73)”, with 0.981 ± 0.023; and A0A0A0MR51|O60427 (UniProt O60427), with 1.03 ± 0.017. On to “A0A0A0MTP3|Q99550 and related entries (UniProt Q99550)”, for which the NP40-soluble protein abundance came to 1.006 ± 0.0073. The same measure for “A0A0A0MRB7|P15923-2|X6REB3 (UniProt P15923)”: 0.976 ± 0.018. Then A0A0C4DGZ1|Q8N5P1 (UniProt Q8N5P1), with 0.9805 ± 0.0034; and A0A087WZX2|O95139 (UniProt O95139), with 1.006 ± 0.0031; and A0A087X0Q9|Q9BVL4 (UniProt Q9BVL4), with 1.02 ± 0.037. The same measure for A0A0C4DGC9|Q8TDR2 (UniProt Q8TDR2): 0.9978 ± 0.0093; for “A0A0A0MRJ6|C9J0F2 and related entries (UniProt P22061)”: 1.01 ± 0.037; for “A0A087WWM4|F8WAN9 and related entries (UniProt Q9P2T1)”: 1.01 ± 0.035.

For the target “A0A0A0MQS0|A8MW92 and related entries (UniProt A8MW92)”, the NP40-soluble protein abundance was 0.942 ± 0.036. The same measure for A0A087X243|P09211 (UniProt P09211): 0.998 ± 0.019.
